Data: patent US6846659B2, “Isolation and bacterial expression of a sesquiterpene synthase cDNA clone from peppermint (Mentha x piperita, L.) that produces the aphid alarm pheromone (E)-β-farnesene” (Washington State University Research Foundation, priority 1997, dated 2005)
A number of entries come with more than one value. Only these are listed. There may be further records. Values that stand side by side do not match, cause unknown; some may be repeats, others may stem from another dose, organism or construct than stated.

By UniProt entry, the sequences of proteins in these tests, tags left out. Where a name states a change or a piece, a line headed by the entry shows the natural chain unless it says otherwise.
UniProt O48935, whole entry: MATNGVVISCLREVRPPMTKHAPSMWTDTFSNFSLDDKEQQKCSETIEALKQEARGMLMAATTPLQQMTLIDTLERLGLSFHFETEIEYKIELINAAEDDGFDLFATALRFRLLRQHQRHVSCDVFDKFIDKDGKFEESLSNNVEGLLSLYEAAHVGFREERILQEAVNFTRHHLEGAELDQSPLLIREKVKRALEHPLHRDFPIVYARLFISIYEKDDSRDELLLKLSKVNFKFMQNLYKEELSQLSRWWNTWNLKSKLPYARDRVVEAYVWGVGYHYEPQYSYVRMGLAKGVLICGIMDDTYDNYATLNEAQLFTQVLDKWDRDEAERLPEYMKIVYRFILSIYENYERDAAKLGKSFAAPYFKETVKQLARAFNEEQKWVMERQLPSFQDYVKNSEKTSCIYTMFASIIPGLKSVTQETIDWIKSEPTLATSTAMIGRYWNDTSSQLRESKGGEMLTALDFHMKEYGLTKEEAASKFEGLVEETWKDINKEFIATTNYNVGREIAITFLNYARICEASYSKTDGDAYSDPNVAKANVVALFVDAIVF

Molecular target: recombinant (E)-β-farnesene synthase (SEQ ID NO:2) (Mentha piperita, UniProt O48935)
Assay: Kinetic characterization of recombinant, partially purified (E)-β-farnesene synthase (sesquiterpene/monoterpene/diterpene synthase assay)
Assay type: biochemical, peppermint (Mentha piperita)
Conditions: conversion to monoterpene olefins versus FDP to sesquiterpene olefins, at saturation; tested as the radiolabelled form

## CC(C)=CCC/C(C)=C/COP(=O)(O)OP(=O)(O)O [GDP, geranyl diphosphate]
  relative velocity at saturating levels, of the velocity with FDP: less than 3% and 3%
